# From the supplement of paper PMC8728848
# Some of the results follow.
# B1: Epa8 (Candida glabrata) (protein)
# chain: MGSSHHHHHHSSGLVPRGSHMASSRALSDYPLGCSPLLGTKLTPGLSMELYEYPLDNHGIGPHCWDPAYLNPEYPRTGFESHKLIGTAQNVMSLNFEHRTQDCHVEFSNLPASFNFPDQITLTNFTMLLYGYFKPKESGRYRFHMEADDLLLMNLGAGNAFDCCAHEATRNNLGDYIAYDIWAGTRKDVEVFLEKEVFYPLRLFFNNRDGRAALDFSYYLNGATEPGTDIPELLFSLPDGESCPAYI
# Assays:
# Assay in all cases: glycan array binding signal (z-score within array); higher = stronger binding
# Settings in all cases: glycan notation: IUPAC condensed, linker removed
# [1] = target: GalNAc(b1-4)GlcNAc
# Summary of the method: (§1)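 Columns mapping to the same glycan were averaged after glycan names were converted to IUPAC-condensed notation. The data come from 3228 arrays in the Consortium for Functional Glycomics database, limited to those with an available protein sequence. Binding is reported as a within-array Z-score averaged across arrays of one protein sequence and across linkers.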
# [2] = target: GalNAc(b1-4)GlcNAc(b1-2)Man
# Summary of the method: as §1
# [3] = target: GalNAc(b1-4)GlcNAc(b1-2)Man(a1-3)[GalNAc(b1-4)GlcNAc(b1-2)Man(a1-6)]Man(b1-4)GlcNAc(b1-4)GlcNAc
# Summary of the method: as §1
# [4] = target: GalNAc(b1-4)GlcNAc(b1-3)GalNAc(b1-4)GlcNAc
# Summary of the method: as §1
# [5] = target: GalNAc(b1-4)GlcNAc6S
# Summary of the method: as §1
# [6] = target: GalNAc(b1-6)GalNAc
# Summary of the method: as §1
# [7] = target: GalNAc3S(b1-4)GlcNAc
# Summary of the method: as §1
# [8] = target: GalNAc3S(b1-4)GlcNAc3S
# Summary of the method: as §1
# [9] = target: GalNAc3S(b1-4)[Fuc(a1-3)]GlcNAc
# Summary of the method: as §1
# [10] = target: GalNAc4S6S(b1-4)GlcNAc
# Summary of the method: as §1
# [11] = target: GalNAc6S(b1-4)GlcNAc
# Summary of the method: as §1
# [12] = target: Glc(a1-4)Glc
# Summary of the method: as §1
# [13] = target: Glc(a1-4)Glc(a1-4)Glc(a1-4)Glc
# Summary of the method: as §1
# [14] = target: Glc(a1-6)Glc(a1-6)Glc
# Summary of the method: as §1
# [15] = target: Glc(a1-6)Glc(a1-6)Glc(a1-6)Glc
# Summary of the method: as §1
# [16] = target: Glc(b1-4)Glc
# Summary of the method: as §1
# [17] = target: Glc(b1-6)Glc
# Summary of the method: as §1
# [18] = target: GlcA(b1-3)Gal
# Summary of the method: as §1
# [19] = target: GlcA(b1-3)GlcNAc
# Summary of the method: as §1
# [20] = target: GlcA(b1-6)Gal
# Summary of the method: as §1
# [21] = target: GlcA3S(b1-3)Gal(b1-4)GlcNAc(b1-2)Man
# Summary of the method: as §1
# [22] = target: GlcA3S(b1-3)Gal(b1-4)GlcNAc(b1-3)Gal(b1-4)Glc
# Summary of the method: as §1
# [23] = target: GlcNAc(a1-3)Gal(b1-4)GlcNAc
# Summary of the method: as §1
# [24] = target: GlcNAc(a1-4)Gal(b1-3)GlcNAc
# Summary of the method: as §1
# [25] = target: GlcNAc(a1-4)Gal(b1-4)GalNAc
# Summary of the method: as §1
# [26] = target: GlcNAc(a1-4)Gal(b1-4)GlcNAc
# Summary of the method: as §1
# [27] = target: GlcNAc(a1-4)Gal(b1-4)GlcNAc(b1-3)Gal(b1-4)Glc
# Summary of the method: as §1
# [28] = target: GlcNAc(a1-4)Gal(b1-4)GlcNAc(b1-3)Gal(b1-4)GlcNAc
# Summary of the method: as §1
# [29] = target: GlcNAc(a1-4)Gal(b1-4)GlcNAc(b1-3)Gal(b1-4)GlcNAc(b1-3)Gal(b1-4)GlcNAc
# Summary of the method: as §1
# [30] = target: GlcNAc(a1-4)Gal(b1-4)GlcNAc(b1-3)Gal(b1-4)[Fuc(a1-3)]GlcNAc(b1-3)Gal(b1-4)[Fuc(a1-3)]GlcNAc
# Summary of the method: as §1
# [31] = target: GlcNAc(a1-6)Gal(b1-4)GlcNAc
# Summary of the method: as §1
# [32] = target: GlcNAc(b1-2)Gal(b1-3)GalNAc
# Summary of the method: as §1
# [33] = target: GlcNAc(b1-2)Man(a1-3)[GlcNAc(b1-2)Man(a1-6)]Man(b1-4)GlcNAc(b1-4)GlcNAc
# Summary of the method: as §1
# [34] = target: GlcNAc(b1-2)Man(a1-3)[GlcNAc(b1-2)Man(a1-6)]Man(b1-4)GlcNAc(b1-4)[Fuc(a1-6)]GlcNAc
# Summary of the method: as §1
# [35] = target: GlcNAc(b1-2)Man(a1-3)[GlcNAc(b1-4)][GlcNAc(b1-2)Man(a1-6)]Man(b1-4)GlcNAc(b1-4)GlcNAc
# Summary of the method: as §1
# [36] = target: GlcNAc(b1-2)Man(a1-3)[GlcNAc(b1-4)][GlcNAc(b1-2)Man(a1-6)]Man(b1-4)GlcNAc(b1-4)[Fuc(a1-6)]GlcNAc
# Summary of the method: as §1
# [37] = target: GlcNAc(b1-2)[GlcNAc(b1-4)]Man(a1-3)[GlcNAc(b1-2)Man(a1-6)]Man(b1-4)GlcNAc(b1-4)GlcNAc
# Summary of the method: as §1
binder,measurement,setting,value
B1,glycan array binding signal (z-score),[1],-0.22
same,glycan array binding signal (z-score),[2],-1.45
same,glycan array binding signal (z-score),[3],-0.176
same,glycan array binding signal (z-score),[4],-0.028
same,glycan array binding signal (z-score),[5],0.087
same,glycan array binding signal (z-score),[6],-0.692
same,glycan array binding signal (z-score),[7],-0.238
same,glycan array binding signal (z-score),[8],1.11
same,glycan array binding signal (z-score),[9],0.176
same,glycan array binding signal (z-score),[10],1.67
same,glycan array binding signal (z-score),[11],-0.651
same,glycan array binding signal (z-score),[12],-0.398
same,glycan array binding signal (z-score),[13],0.169
same,glycan array binding signal (z-score),[14],-0.225
same,glycan array binding signal (z-score),[15],0.95
same,glycan array binding signal (z-score),[16],-1.31
same,glycan array binding signal (z-score),[17],-0.452
same,glycan array binding signal (z-score),[18],0.715
same,glycan array binding signal (z-score),[19],0.027
same,glycan array binding signal (z-score),[20],0.619
same,glycan array binding signal (z-score),[21],0.306
same,glycan array binding signal (z-score),[22],-0.781
same,glycan array binding signal (z-score),[23],-0.695
same,glycan array binding signal (z-score),[24],-0.625
same,glycan array binding signal (z-score),[25],-0.438
same,glycan array binding signal (z-score),[26],0.361
same,glycan array binding signal (z-score),[27],0.924
same,glycan array binding signal (z-score),[28],1.28
same,glycan array binding signal (z-score),[29],-0.488
same,glycan array binding signal (z-score),[30],0.326
same,glycan array binding signal (z-score),[31],0.258
same,glycan array binding signal (z-score),[32],-0.399
same,glycan array binding signal (z-score),[33],-0.267
same,glycan array binding signal (z-score),[34],-0.052
same,glycan array binding signal (z-score),[35],-0.238
same,glycan array binding signal (z-score),[36],-0.4
same,glycan array binding signal (z-score),[37],-0.001

# A stretch from the list above, for reference:
binder,measurement,setting,value
B1,glycan array binding signal (z-score),[32],-0.399
same,glycan array binding signal (z-score),[33],-0.267
